# Source: article PMC12322227
# No constants are given. Whether binding was seen depends on the method and setting. In cells and extracts the contact can be indirect. Some entries that bind do so weakly or less than the wild type. For some assays here: Tags and fused reporters may be left off the sequences shown.
# T1: Sting, mouse, endogenous (mouse (endogenous in splenocytes and NIH3T3)) (UniProt Q3TBT3)
# T1 sequence: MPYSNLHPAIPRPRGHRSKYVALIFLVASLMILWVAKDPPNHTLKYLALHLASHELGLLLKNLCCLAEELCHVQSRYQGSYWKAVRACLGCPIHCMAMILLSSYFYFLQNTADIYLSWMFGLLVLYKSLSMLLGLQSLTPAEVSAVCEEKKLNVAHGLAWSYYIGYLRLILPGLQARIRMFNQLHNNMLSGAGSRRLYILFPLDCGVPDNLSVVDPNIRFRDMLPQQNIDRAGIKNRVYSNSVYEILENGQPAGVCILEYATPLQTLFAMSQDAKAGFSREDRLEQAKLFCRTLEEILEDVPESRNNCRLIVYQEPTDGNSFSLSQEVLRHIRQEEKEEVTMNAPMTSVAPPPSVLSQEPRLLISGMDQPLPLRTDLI
# What was measured:
# [1] = molecular target: T1, Sting, mouse, endogenous (mouse (endogenous in splenocytes and NIH3T3)); experiment: proximity ligation; endogenous proteins in human PBMCs and mouse splenocytes; antibodies against TRIM21 and STING; NaveniFlex Cell MR Atto647N; confocal microscopy
# [2] = molecular target: T1, Sting, mouse, endogenous (mouse (endogenous in splenocytes and NIH3T3)); experiment: proximity ligation; NIH3T3 cells overexpressing mCherry-tagged Trim21 constructs; antibodies against mCherry and STING; NaveniFlex Cell MR Atto647N; confocal microscopy
binding [1],binding [2],Binder
binds,–,"Trim21, mouse, endogenous (protein, UniProt Q62191 1-470) MSPSTTSKMSLEKMWEEVTCSICLDPMVEPMSIECGHCFCKECIFEVGKNGGSSCPECRQQFLLRNLRPNRHIANMVENLKQIAQNTKKSTQETHCMKHGEKLHLFCEEDGQALCWVCAQSGKHRDHTRVPIEEAAKVYQEKIHVVLEKLRKGKELAEKMEMDLTMQRTDWKRNIDTQKSRIHAEFALQNSLLAQEEQRQLQRLEKDQREYLRLLGKKEAELAEKNQALQELISELERRIRGSELELLQEVRIILERSGSWNLDTLDIDAPDLTSTCPVPGRKKMLRTCWVHITLDRNTANSWLIISKDRRQVRMGDTHQNVSDNKERFSNYPMVLGAQRFSSGKMYWEVDVTQKEAWDLGVCRDSVQRKGQFSLSPENGFWTIWLWQDSYEAGTSPQTTLHIQVPPCQIGIFVDYEAGVVSFYNITDHGSLIYTFSECVFAGPLRPFFNVGFNYSGGNAAPLKLCPLKM"
–,binds,"mCherry-tagged mouse Trim21 (pmCherry-C1-mTrim21) (protein, UniProt Q62191 1-470) MSPSTTSKMSLEKMWEEVTCSICLDPMVEPMSIECGHCFCKECIFEVGKNGGSSCPECRQQFLLRNLRPNRHIANMVENLKQIAQNTKKSTQETHCMKHGEKLHLFCEEDGQALCWVCAQSGKHRDHTRVPIEEAAKVYQEKIHVVLEKLRKGKELAEKMEMDLTMQRTDWKRNIDTQKSRIHAEFALQNSLLAQEEQRQLQRLEKDQREYLRLLGKKEAELAEKNQALQELISELERRIRGSELELLQEVRIILERSGSWNLDTLDIDAPDLTSTCPVPGRKKMLRTCWVHITLDRNTANSWLIISKDRRQVRMGDTHQNVSDNKERFSNYPMVLGAQRFSSGKMYWEVDVTQKEAWDLGVCRDSVQRKGQFSLSPENGFWTIWLWQDSYEAGTSPQTTLHIQVPPCQIGIFVDYEAGVVSFYNITDHGSLIYTFSECVFAGPLRPFFNVGFNYSGGNAAPLKLCPLKM"
